These are yes or no findings as the source states them, for the method shown. In cells and extracts the contact can be indirect. A yes stands for co-enrichment or nearness to the bait. Other partners may have been found.
T1: sentrin‐specific protease 1 (SENP1) (not stated (endogenous in primary cardiomyocytes; those of Figure 7B are from mice)) (UniProt P59110)
T1 sequence: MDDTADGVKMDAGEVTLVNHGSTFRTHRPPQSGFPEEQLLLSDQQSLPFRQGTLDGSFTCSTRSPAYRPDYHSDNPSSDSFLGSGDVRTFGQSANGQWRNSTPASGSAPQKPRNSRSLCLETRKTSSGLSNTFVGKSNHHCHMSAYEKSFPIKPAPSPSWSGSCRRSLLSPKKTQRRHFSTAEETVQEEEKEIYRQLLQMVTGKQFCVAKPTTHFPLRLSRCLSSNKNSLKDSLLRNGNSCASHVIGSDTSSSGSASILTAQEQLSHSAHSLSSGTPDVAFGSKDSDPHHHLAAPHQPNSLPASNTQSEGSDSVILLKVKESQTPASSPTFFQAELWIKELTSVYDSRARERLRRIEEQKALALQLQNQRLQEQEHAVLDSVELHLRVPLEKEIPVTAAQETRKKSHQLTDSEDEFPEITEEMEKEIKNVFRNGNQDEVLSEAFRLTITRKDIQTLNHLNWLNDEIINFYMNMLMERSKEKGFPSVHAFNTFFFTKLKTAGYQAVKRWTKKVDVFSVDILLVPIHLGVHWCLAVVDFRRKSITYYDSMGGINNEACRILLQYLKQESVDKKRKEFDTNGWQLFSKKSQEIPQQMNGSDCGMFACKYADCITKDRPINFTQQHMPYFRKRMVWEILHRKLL

The chains behind the UniProt entries cited, without tags or fusion partners. Where a name states a change or a piece, a line headed by the entry shows the natural chain unless it says otherwise. Residues count along the entry.
UniProt Q921I1: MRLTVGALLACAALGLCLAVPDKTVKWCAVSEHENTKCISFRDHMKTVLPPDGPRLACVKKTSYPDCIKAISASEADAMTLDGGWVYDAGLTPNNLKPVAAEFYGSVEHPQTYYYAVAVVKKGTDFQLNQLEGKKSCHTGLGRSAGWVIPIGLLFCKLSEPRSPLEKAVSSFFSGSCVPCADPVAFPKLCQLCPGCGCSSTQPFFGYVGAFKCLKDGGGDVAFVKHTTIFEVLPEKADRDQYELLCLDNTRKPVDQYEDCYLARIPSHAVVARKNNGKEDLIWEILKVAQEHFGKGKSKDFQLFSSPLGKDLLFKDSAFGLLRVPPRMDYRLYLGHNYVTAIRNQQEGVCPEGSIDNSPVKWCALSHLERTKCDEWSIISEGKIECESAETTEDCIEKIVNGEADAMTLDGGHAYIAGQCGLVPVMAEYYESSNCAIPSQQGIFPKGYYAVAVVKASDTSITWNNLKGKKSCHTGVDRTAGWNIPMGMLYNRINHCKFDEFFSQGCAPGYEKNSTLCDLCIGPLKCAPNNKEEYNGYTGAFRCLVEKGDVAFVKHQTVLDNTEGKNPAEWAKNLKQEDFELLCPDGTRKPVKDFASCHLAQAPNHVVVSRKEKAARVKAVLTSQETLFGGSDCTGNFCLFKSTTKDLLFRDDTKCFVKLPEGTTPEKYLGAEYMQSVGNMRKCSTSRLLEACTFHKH
UniProt Q9WUM5, residues 35-346: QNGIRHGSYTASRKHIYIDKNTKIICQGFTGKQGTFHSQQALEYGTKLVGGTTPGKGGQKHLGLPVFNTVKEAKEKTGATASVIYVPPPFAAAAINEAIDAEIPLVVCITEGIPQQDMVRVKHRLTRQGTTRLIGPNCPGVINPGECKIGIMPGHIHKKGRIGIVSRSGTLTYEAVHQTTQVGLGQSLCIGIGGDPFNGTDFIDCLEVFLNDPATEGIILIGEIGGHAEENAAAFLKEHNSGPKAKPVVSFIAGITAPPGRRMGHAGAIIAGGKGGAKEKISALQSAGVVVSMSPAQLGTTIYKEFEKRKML

B1: ACADM1 (protein, UniProt P45952 26-421)
chain: KAAHKQEPGLGFSFELTEQQKEFQATARKFAREEIIPVAPEYDKSGEYPFPLIKRAWELGLINAHIPESCGGLGLGTFDACLITEELAYGCTGVQTAIEANSLGQMPVILAGNDQQKKKYLGRMTEQPMMCAYCVTEPSAGSDVAAIKTKAEKKGDEYVINGQKMWITNGGKANWYFLLARSNPDPKVPASKAFTGFIVEADTPGIHIGKKELNMGQRCSDTRGIAFEDVRVPKENVLIGEGAGFKIAMGAFDRTRPTVAAGAVGLAQRALDEATKYALDRKTFGKLLVEHQGVSFLLAEMAMKVELARLSYQRAAWEVDSGRRNTYYASIAKAFAGDIANQLATDAVQIFGGYGFNTEYPVEKLMRDAKIYQIYEGTAQIQRLIIAREHIEKYKN
B2: PiC (protein, UniProt Q8VEM8 46-357)
chain: AVEEYSCEFGSMKYYALCGFGGVLSCGLTHTAVVPLDLVKCRMQVDPQKYKGIFNGFSITLKEDGVRGLAKGWAPTLIGYSMQGLCKFGFYEVFKALYSNILGEENTYLWRTSLYLASSASAEFFADIALAPMEAAKVRIQTQPGYANTLREAVPKMYKEEGLNAFYKGVAPLWMRQIPYTMMKFACFERTVEALYKFVVPKPRSECTKAEQLVVTFVAGYIAGVFCAIVSHPADSVVSVLNKEKGSTASQVLQRLGFRGVWKGLFARIIMIGTLTALQWFIYDSVKVYFRLPRPPPPEMPESLKKKLGLTE
B3: PDHB (protein, UniProt Q9D051 31-359)
chain: VQLTVREAINQGMDEELERDEKVFLLGEEVAQYDGAYKVSRGLWKKYGDKRIIDTPISEMGFAGIAVGAAMAGLRPICEFMTFNFSMQAIDQVINSAAKTYYMSAGLQPVPIVFRGPNGASAGVAAQHSQCFAAWYGHCPGLKVVSPWNSEDAKGLIKSAIRDNNPVVMLENELMYGVAFELPAEAQSKDFLIPIGKAKIERQGTHITVVAHSRPVGHCLEAAAVLSKEGIECEVINLRTIRPMDIEAIEASVMKTNHLVTVEGGWPQFGVGAEICARIMEGPAFNFLDAPAVRVTGADVPMPYAKVLEDNSVPQVKDIIFAVKKTLNI

How the values were obtained:
[1] = target: T1, sentrin‐specific protease 1 (SENP1) (not stated (endogenous in primary cardiomyocytes; those of Figure 7B are from mice)); assay: affinity purification with mass spectrometry; immunoprecipitation with anti-SENP1 or anti-SUMO1 antibody from primary cardiomyocytes, with and without myocardial injury; mass spectrometry of what was pulled down
[2] = target: SUMO1 (mouse (endogenous in primary cardiomyocytes from mice)) (UniProt P63166); assay: as above

Row | Molecule | binding [1] | binding [2]
1 | TRF (from UniProt Q921I1 20-697) | binds | binds
2 | SUCLG1 (from UniProt Q9WUM5 35-346) | binds | binds
3 | B1 | binds | binds
4 | B2 | binds | binds
5 | B3 | binds | binds
